Results are given in words; binding and its absence hold for the method and conditions named. Binding seen in cells or lysates may run through a third protein. Some binding calls cover weakened binding; strength is not graded here.
Experiments:
[1] = molecular target: PKM2-Flag (Flag-tagged PKM2-WT) (UniProt P14618); experiment: co-IP; anti-Flag M2 Sepharose beads on lysates of MDA-MB-231 and BT-549 cells overexpressing the Flag-tagged protein; endogenous partner found by blot; IgG as negative control
Flag-tagged PKM2-S406A = Flag-tagged PKM2-S406A (UniProt P14618); experiment: as above

Sequences of proteins named here, by UniProt entry; tags and fusion partners are left off. A change or cut given only in a name is not applied to a line headed by its entry.
UniProt P14618: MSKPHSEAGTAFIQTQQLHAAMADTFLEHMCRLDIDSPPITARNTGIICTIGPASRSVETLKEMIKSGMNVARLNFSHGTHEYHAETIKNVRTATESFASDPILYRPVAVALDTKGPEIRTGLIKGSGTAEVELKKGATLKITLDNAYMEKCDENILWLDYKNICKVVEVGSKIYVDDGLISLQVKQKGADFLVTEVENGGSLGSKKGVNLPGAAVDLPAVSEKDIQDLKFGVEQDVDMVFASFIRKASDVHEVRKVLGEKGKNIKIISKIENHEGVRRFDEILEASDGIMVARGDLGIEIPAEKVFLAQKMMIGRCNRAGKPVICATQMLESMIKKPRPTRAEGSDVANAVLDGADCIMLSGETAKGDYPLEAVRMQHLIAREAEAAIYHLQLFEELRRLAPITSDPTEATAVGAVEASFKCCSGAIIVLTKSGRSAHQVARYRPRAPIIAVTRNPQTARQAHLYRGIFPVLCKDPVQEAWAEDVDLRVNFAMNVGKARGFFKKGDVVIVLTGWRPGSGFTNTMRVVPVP

binding [1]: binds
binding (Flag-tagged PKM2-S406A): binds
B1: NONO (non-POU domain-containing octamer-binding protein), endogenous (protein, UniProt Q15233 1-471)
chain: MQSNKTFNLEKQNHTPRKHHQHHHQQQHHQQQQQQPPPPPIPANGQQASSQNEGLTIDLKNFRKPGEKTFTQRSRLFVGNLPPDITEEEMRKLFEKYGKAGEVFIHKDKGFGFIRLETRTLAEIAKVELDNMPLRGKQLRVRFACHSASLTVRNLPQYVSNELLEEAFSVFGQVERAVVIVDDRGRPSGKGIVEFSGKPAARKALDRCSEGSFLLTTFPRPVTVEPMDQLDDEEGLPEKLVIKNQQFHKEREQPPRFAQPGSFEYEYAMRWKALIEMEKQQQDQVDRNIKEAREKLEMEMEAARHEHQVMLMRQDLMRRQEELRRMEELHNQEVQKRKQLELRQEEERRRREEEMRRQQEEMMRRQQEGFKGTFPDAREQEIRMGQMAMGGAMGINNRGAMPPAPVPAGTPAPPGPATMMPDGTLGLTPPTTERFGQAATMEGIGAIGGTPPAFNRAAPGAEFAPNKRRRY

Source: paper PMC11892261
